Data as given in the supplement of paper PMC5949888.
Most values lie at the floor of the assay. Slopes are relative: functional sequences can read slightly below zero.

Each substance was assayed on Saccharomyces cerevisiae PS128 hsf1 delta, HSF1(1-493) fusion (assay: growth estimate (transactivation domain function in HSF1 fusion, heat-shock survival) (a.u. (slope of normalised read count over time)); higher = stronger growth at 37°C, i.e. more transactivation activity). Conditions: library: random library.

Substance | growth estimate
NLL | < -0.25
PSN | < -0.25
GRQLLIKVGREGAKWRCNIV | < -0.25
CSEVLELVYR | < -0.25
SRKESGCSICQHRCCKSSVE | < -0.25
MQHELHTELPIVKGTSGRYV | < -0.25
GLFTATCLQGHSVVCVKLTQ | < -0.25
WIHSSTRHWRSVNAGADTAH | < -0.25
GIGRV | < -0.25
DGV | < -0.25
SVKGRIASQTTRATQE | < -0.25
NFRAALAGERWYSCAGDPC | < -0.25
MLVYLSKDWKLNTFGFRMPR | < -0.25
SGGDPKEFIAGLPYREPIAV | < -0.25
WATRQVGRTHETGNSGLVNH | < -0.25
QVAGGNLGPAVQTSRRHSST | < -0.25
VLGWPPLLLRAVPHWMDPSG | < -0.25
HSSRG | < -0.25
AVPRCLRAYGLHPGGS | 0.246
LTPS | < -0.25
FTCPQSLLNLLPQYWQNMQV | < -0.25
AALLSAQ | < -0.25
AAGNDLSGRPGFGTACKKIC | < -0.25
KGGSCVECHLAHESKTPSPW | < -0.25
ILKWMLGAR | < -0.25

Substance | growth estimate
APLSVYVVVCYAAGRDTQHS | < -0.25
DILRLNNGALVSGGDFLLSG | -0.246
EFEGLGGGGTGSVVLVWAAS | < -0.25
FWRCLGPSVKIYVATEVDNG | < -0.25
VVYRRTRK | < -0.25
CMVQGAGKLVLLVYTLSKCC | < -0.25
FEYVTTAALG | < -0.25
CVSY | < -0.25
TKRLVGLHRRVSLGFSPRFS | < -0.25
PISPPCRVW | < -0.25
AREEGSRATLPYGGYCR | < -0.25
FAASGP | < -0.25
SATIRVLWTTPWASSWEGGA | < -0.25
EKGGSISGRN | < -0.25
QDDTSARIPLPIGPPGSVVL | < -0.25
KQSRPQTQGYRLL | < -0.25
GPIGRRGFGESSYSG | -0.231
WCIFE | < -0.25
EDDTGVPKLDMVELALTDRM | < -0.25
RLSAVPISLPSFVEVIVSSE | < -0.25
SVFGIGPGDFSRRSI | < -0.25
NLVLSKGSTTVWDRRSSSGI | < -0.25
HRSRGQQASEYWSRASWRT | < -0.25
LVCFKLITGVRWYHDSQGKY | < -0.25
LLRPWGTRLE | < -0.25

Substance | growth estimate
VLERGSSITVTPCAGSSRGI | < -0.25
ARLVLHLPQGSKLNTFDQSR | < -0.25
KGVSRPVASTTLPGGKRHFA | < -0.25
NLRIRGATDRNSEGSITTAH | < -0.25
SWTA | < -0.25
KEWMTRQRSGRSNN | < -0.25
GRF | < -0.25
HDQGPSKGRPWKLRASSACG | < -0.25
RFALYGCLYALSN | < -0.25
DSRD | < -0.25
SLEVLLRYQSISESGWRTTV | < -0.25
DRSALRVCRRSVPEPRLG | < -0.25
QKRGSL | < -0.25
NSSSPGGPSY | < -0.25
CSRTELPRQERGRW | -0.217
GLRFPSQVIEGQLYCVVVSS | < -0.25
RTSFGSRGRTGGR | < -0.25
TDWSQLSVAVLRAHYTLFAN | < -0.25
VNFRHAALRR | < -0.25
GPLEPIPYPVEYESNDGVLA | -0.245
SGDCI | < -0.25
WTVGGYTTQCRPLLDLTGPC | < -0.25
SLSILNSKVPWGFDLGVSRT | < -0.25
PDALATYPC | < -0.25
TRVPVSASTS | < -0.25

Substance | growth estimate
CTRVKLSQSQGLTPTGLQGT | < -0.25
LRGDG | < -0.25
RVESIVSEE | < -0.25
GGNIHLRERTGPAGFPPITT | < -0.25
RIRADGNVGTKYNLTGNGFH | < -0.25
CGRDLHWPTNNSAERRHHTL | -0.246
LRVLRP | < -0.25
TRPYLVT | < -0.25
EISTMVCFVLTRLFIPRIFP | < -0.25
CSHFWSETTQLV | < -0.25
VVLWRL | < -0.25
SRYVRSPFKMGLGALATIGG | < -0.25
SYSGMKNGYEPVSQATVFRR | < -0.25
HHCNWHPVAITP | < -0.25
PIIAGTRSGSSRRRPRQNAA | < -0.25
ELACRRR | < -0.25
DEMSRLRNANRISPAMHQTV | < -0.25
FLYIGCFLRRTYKYAAEPEF | < -0.25
IGQGISAAVELPGWSTLATY | < -0.25
RFL | < -0.25
GVVRGTGRLRSSVPTSLHSP | < -0.25
PTRVDGPS | < -0.25
AEAPILNLATVGV | < -0.25
VIRSDCQF | -0.0584
FNTLWSLRG | < -0.25

Substance | growth estimate
GNFGLSSSCV | < -0.25
SKRTER | < -0.25
FLNFLRLRINSLQLASATFR | < -0.25
NVKVVRC | < -0.25
KDGPSHSEEAVRG | -0.248
SRFGQVNIIR | < -0.25
RYMSWGVGS | < -0.25
RIDGMVRPKLRHMKGRLRAK | < -0.25
ITERIRVDLLPFGTGLLAFI | < -0.25
GICAFKIYKDGNQFTGGGGT | < -0.25
ASCRGPRRAPKMGPASLCHR | < -0.25
NTGA | < -0.25
CSGCGLIEWRGN | < -0.25
RASTLGGCLNAMVTADVLLC | < -0.25
GKFPDAWRNFDSYLDGGVRV | < -0.25
DMRRRGCGSTLFTLP | < -0.25
DAPGCGTARRPATRPSHAIT | < -0.25
YGVQYCTPS | < -0.25
HVGDVWP | < -0.25
RYVGTRKSS | < -0.25
NINTPASTRPERAD | < -0.25
PWFNRIRRFMGTGVFGCFSP | < -0.25
CGPIIGEAYWMKRGETSWTQ | -0.245
RDKVCNFSIVRIVPSEYGKA | -0.246
RGCMWIVCGLVALPFKYCD | < -0.25

Substance | growth estimate
FSDISRNLSILCSMHEV | < -0.25
EASNFSGTSMEIAVLERSWT | < -0.25
LLYYAG | < -0.25
SALLLPLNAYRALVRPGNAK | < -0.25
RQTDNNRGTRQKL | < -0.25
HLSNYEFMDFRRINP | < -0.25
NYEITFNGHGLAKKLVSVVA | < -0.25
MSLGVRRRRETGSGRSRC | < -0.25
GSAPHDLMFRSQRVKRFQTN | < -0.25
RPPIWNPRNVL | < -0.25
LRCRVRKEQSFRVPRAQILL | < -0.25
TCAGTGIWLGRSNTSIDFCA | < -0.25
SVGGTEKPR | < -0.25
YRAI | < -0.25
VDAAKSSRALGRSSTVSKLC | < -0.25
RVATSHGRILWCWVVIGVTE | < -0.25
LSPSRLFS | < -0.25
INRVDI | < -0.25
NMASGTCSQ | < -0.25
RIWFPSGMWRADWPQSNIGR | < -0.25
KLCTRGLLSCDIPTWKRPRD | < -0.25
PWWEVVGNGSCSEGRSNGSA | < -0.25
YNSGCRVY | < -0.25
QGRGGRGTASHTSYLIWW | < -0.25
PPPDLQIYFYSTSRLHNL | < -0.25

Substance | growth estimate
GESIGMMDPWSY | -0.224
PCGVSVTKPVSCKPAGECAL | < -0.25
ARLSSLKVASVRRGQRSTNV | -0.245
GMMAGYTQYQFSIQSTHLIG | < -0.25
NEVGASQGHNVHYTRI | < -0.25
IVGRGDRVGLAGETIRITLG | < -0.25
GERAAAPGR | < -0.25
LSVRCDVAGEHDMASRIMAP | < -0.25
FVVRVVLAVRRDYSAGPARK | < -0.25
SRRIKAVLGSGSAER | < -0.25
TVAVNCLDVMVALFMVEPRS | < -0.25
HANSVPLNGWRRTIGALASR | < -0.25
LGPLFGGDG | < -0.25
GACA | -0.242
YQIE | < -0.25
HCCRYVNQI | < -0.25
AHPRTNSSGVCRTSMLCDRG | < -0.25
RLAVSPSPAGGNTFGPAPSP | < -0.25
ICGRGSFLPLFYMVLEDQNR | < -0.25
VAVALLGVIRQPDCFLKTAN | < -0.25
TESPPRNLVLGRHIVFRLRC | < -0.25
DIE | < -0.25
SDY | < -0.25
PGYLTSNSIVGVPFT | < -0.25
SGIPRPGSVLTQRGDQNLSV | < -0.25

7 neighbouring records already listed:
Substance | growth estimate
IVGRGDRVGLAGETIRITLG | < -0.25
GERAAAPGR | < -0.25
LSVRCDVAGEHDMASRIMAP | < -0.25
FVVRVVLAVRRDYSAGPARK | < -0.25
SRRIKAVLGSGSAER | < -0.25
TVAVNCLDVMVALFMVEPRS | < -0.25
HANSVPLNGWRRTIGALASR | < -0.25

Continuation.

Substance | growth estimate
SAFEANCRVKTDWKIGYRTQ | < -0.25
GIGPAALLSSRRGGLPGMIP | < -0.25
TREGELRRVCCASKNPRDAD | < -0.25
PFQPCSPVSYDV | < -0.25
SNASSAVIRSIRLLNQRILR | < -0.25
SDKNYLLADELDTSLYGVQG | < -0.25
PTKDMALGL | < -0.25
GTEMLGARRLNVKVQPYTS | < -0.25
HDPVVDKQNGHVIRFGASEI | < -0.25
SSAYIGVCWEGR | < -0.25
NSTGYFVSPPHSSAPCLFAL | < -0.25
HHEYEDWVVLRS | -0.213
KCLYCPLVSQQIPVLARRQT | < -0.25
VSRAASRASVLEVVDPTGRG | < -0.25
VWEFLGWAINQIIGHGFACM | < -0.25
TKADTSSYILQSQRSHDVRQ | < -0.25
TVRTAISRINLRPLNSLSLS | < -0.25
LMERAVRQRVVVILTKGFTD | < -0.25
WVRMQSDQIAGRGNDLGLFG | < -0.25
LTPSSTCSFGSSFLLRLRSI | < -0.25
REEPLRSSGRALGTVLYGCR | < -0.25
